Laboratory results published in patent US20180362625A1 (COMMONWEALTH SCIENTIFIC AND INDUSTRIAL RESEARCH ORGANISATION, published 2018).
Results are given in words; binding and its absence hold for the method and conditions named. Some binding calls cover weakened binding; strength is not graded here. Tags and fused reporters may be left off the sequences shown.

Key:
[1] = biological target: T1, IRF3 transfected into HEK293T cells (UniProt Q14653); assay: indirect immunoprecipitation with anti-IRF3 antibody from transfected HEK293T lysates, western blot with anti-FLAG
T1 sequence (looked up): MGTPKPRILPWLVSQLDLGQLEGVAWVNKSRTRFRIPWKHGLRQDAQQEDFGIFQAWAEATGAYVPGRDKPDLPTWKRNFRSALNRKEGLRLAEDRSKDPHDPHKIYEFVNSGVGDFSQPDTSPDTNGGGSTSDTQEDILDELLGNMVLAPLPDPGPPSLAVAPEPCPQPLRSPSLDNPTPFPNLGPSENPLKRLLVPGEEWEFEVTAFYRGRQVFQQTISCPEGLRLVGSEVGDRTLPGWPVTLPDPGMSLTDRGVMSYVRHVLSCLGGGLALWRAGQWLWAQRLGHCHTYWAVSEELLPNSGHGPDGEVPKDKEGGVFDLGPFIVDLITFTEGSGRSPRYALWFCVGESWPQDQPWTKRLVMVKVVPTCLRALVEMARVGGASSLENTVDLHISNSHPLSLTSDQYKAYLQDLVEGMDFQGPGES

[2] = biological target: T1, IRF3 transfected into HEK293T cells; assay: indirect immunoprecipitation with anti-IRF3 antibody from HEK293T cells transfected with IRF3 and C6orf106, western blot with anti-FLAG, IgG isotype as negative control

binding [1]: binds | binding [2]: binds
B1: Flag-tagged C6orf106 (C6orf106-FLAG, expressed from pCAGGs-C6-FLAG) (other)
chain: MEGMDVDLDPELMQKFSCLGTTDKDVLISEFQRLLGFQLNPAGCAFFLDMTNWNLQAAIGAYYDFESPNISVPSMSFVEDVTIGEGESIPPDTQFVKTWRIQNSGAEAWPPGVCLKYVGGDQFGHVNMVMVRSLEPQEIADVSVQMCSPSRAGMYQGQWRMCTATGLYYGDVIWVILSVEVGGLLGVTQQLSSFETEFNTQPHRKVEGNFNPFASPQKNRQSDENNLKDPGGSEFDSISKNTWAPAPDTWAPAPDQTEQDQNRLSQNSVNLSPSSHANNLSVVTYSKGLHGPYPFGQSGDYKDDDDK
notes: Over-expressed in HeLa or HEK293T cells and tested in cell lysates by co-immunoprecipitation
